Source: PubChem BioAssay AID493014 (National Center for Advancing Translational Sciences (NCATS), 2011)
Some of the results follow. The main result of the screen is listed elsewhere. These columns were measured beside it and carry no call. Most of these compounds were active or inconclusive in the main read-out, so they are no random draw. Potencies come from curve fits of mixed quality, noted in brackets.

Experiment: qHTS Assay to Find Inhibitors of Chronic Active B-Cell Receptor Signaling
Conditions: ABC-DLBCL IkBa-CBG/CBR reporter, luminescence ratio (green luciferase fused to IkBa over red control in TMD8 lymphoma cells), 4 h
Procedure, shortened: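 TMD8 ABC-DLBCL cells carrying doxycycline-inducible green luciferase fused to IkappaBalpha plus unfused red luciferase were exposed to compounds (up to 46 uM) for 4 hrs at 37C. Activity came from the overlap-corrected green/red luminescence ratio.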

[1] = measured here: CBR red luminescence, cell number
[2] = measured here: IkBa-CBG green luminescence

SMILES	AC50 [1]	AC50 [2]
COc1ccc(CNC(=O)Nc2ccc(C)cc2)cc1	2.06 µM [falling, partial curve, poor fit]	–
CCCc1c(O)nc(SCCN(CC)CC)[nH]c1=O	9.2 µM [falling, partial curve, poor fit]	–
COc1cccc(NC(=O)CN(C)C(=O)c2c(C)nn(-c3ccccc3)c2Cl)c1	–	23.1 µM [falling, partial curve, poor fit]
O=C(Nc1ncc2c(n1)-c1ccccc1OC2)c1ccc(Cl)cc1	0.316 µM [falling, full curve, poor fit]	–
Nc1nc2nc(-c3ccc(Cl)cc3)cc(C(F)(F)F)n2n1	2.59 µM [rising, single point]	–
O=C(/C=C/c1ccc(Cl)cc1)N1CCN(Cc2ccccc2)CC1	8.91 µM [falling, partial curve]	–
O=C(Nc1cc(Cl)c(Cl)cc1Cl)c1cccnc1	10 µM [rising, partial curve, poor fit]	–
COc1cc(C2Nc3ccccc3C(=O)N2c2ccccc2)c(Br)cc1OCC(=O)O (stereo not given)	18.4 µM [rising, single point]	6.51 µM [falling, partial curve, poor fit]
COc1ccc2cc(-c3ccccc3F)ncc2c1	–	0.13 µM [rising, full curve, poor fit]
COc1ccc(/C=C/C(=O)N2CCC(C(N)=O)CC2)cc1S(=O)(=O)N1CCOCC1	3.98 µM [rising, partial curve, poor fit]	–
CCOC(=O)c1c(C)[nH]c(C(=O)COC(=O)c2cccnc2Cl)c1C	0.291 µM [rising, full curve, poor fit]	–
CCn1nc(C)c(NC(=O)/C=C/c2ccc(OC)c(COc3ccc(Cl)cc3Br)c2)c1C	0.0259 µM [rising, full curve, poor fit]	–
CCCCOc1ccc(-c2ncc(N)cn2)cc1	0.891 µM [rising, partial curve, poor fit]	–
CCn1cc(CNC(=O)c2cc([N+](=O)[O-])c(C)c([N+](=O)[O-])c2)cn1	6.51 µM [rising, partial curve, poor fit]	–
O=C(COc1ccccc1[N+](=O)[O-])Nc1cccc(Cl)c1N1CCOCC1	25.1 µM [falling, partial curve, poor fit]	–
Cc1nnc(NC(=O)c2cc(-c3ccncc3)nc3c(C)cccc23)s1	0.447 µM [rising, full curve, poor fit]	–
CCc1cc2c(=O)c(-c3cnn(-c4ccccc4)c3)c(C(F)(F)F)oc2c(CN(C)C)c1O	1.64 µM [rising, partial curve, poor fit]	–
Cc1ccc2nc(NC(=O)c3ccc4ncsc4c3)sc2c1	18.4 µM [falling, single point]	–
O=C(N/N=C/c1ccc2cccc(OCc3ccccc3)c2n1)c1ccc(Cl)cc1	3.55 µM [falling, full curve, poor fit]	–
Cc1ccc(C)c(OCCCC(=O)Nc2ccc(N3CCOCC3)cc2)c1	6.51 µM [rising, partial curve, poor fit]	–
Cc1nc(N)sc1C(=O)N/N=C/c1ccc([N+](=O)[O-])cc1	0.398 µM [falling, full curve]	–
COc1ccccc1OCC(O)Cn1c(=N)n(Cc2ccccc2)c2ccccc21 (stereo not given)	2.06 µM [falling, full curve]	–

SMILES	AC50 [1]	AC50 [2]
CC(C)(C)OC(=O)N1CCC(CC2CC(c3ccc(Cl)cc3)=NO2)(C(=O)NCC2CCCCC2)CC1 (stereo not given)	4.47 µM [falling, single point]	–
N#CCC(=O)Nc1ccc(C(=O)Nc2cccc(S(N)(=O)=O)c2)cc1	35.5 µM [falling, single point]	–
O=C1NC(=S)N/C1=C\c1ccc(N2CCOCC2)cc1	25.1 µM [rising, partial curve, poor fit]	–
Cc1ccc2nc(C3CCCN(C(=S)Nc4ccccc4C)C3)[nH]c2c1 (stereo not given)	6.31 µM [falling, partial curve]	–
COc1ccc(C(=O)COC(=O)C(O)c2ccccc2)c(OC)c1 (stereo not given)	1.84 µM [rising, full curve, poor fit]	–
COc1ccc(-n2nnc3c(=O)n(CC(=O)N4CCC(C)CC4)cnc32)cc1	7.31 µM [rising, partial curve, poor fit]	–
CCOC(=O)c1ccc(-n2c(-c3ccco3)nc3ccccc3c2=O)cc1	35.5 µM [rising, single point]	–
C=CCC1(N(C(C)=O)c2ccccc2C)CCCCC1	35.5 µM [falling, single point]	–
O=Nc1c2cc(-c3ccccc3)[nH]nc-2c2ccccc12	1.26 µM [falling, partial curve, poor fit]	–
CCN(CC(N)=O)S(=O)(=O)c1ccc(Br)cc1	7.31 µM [rising, partial curve, poor fit]	–
COC(=O)c1ccc(C(=O)OC)c(-n2c(=O)c3ccccc3c3ccccc3c2=O)c1	4.11 µM [falling, partial curve, poor fit]	–
Cc1ccc(N2C(=O)SC(N(CC(=O)O)c3cccc(C)c3)C2=O)cc1 (stereo not given)	7.08 µM [falling, partial curve]	–
C/C(=N\NC(=O)c1ccc(O)cc1)c1ccc2c(c1)OCCO2	2.06 µM [falling, partial curve]	–
COc1cccc(NC(=O)C(=O)c2cn(CC(=O)N3CCOCC3)c3ccccc23)c1	0.398 µM [falling, full curve]	–
COc1ccc(CCNC(=O)c2noc(C(C)C)c2[N+](=O)[O-])cc1OC	22.4 µM [rising, single point]	–
CC(=O)Oc1ccc2c(=O)c(-c3ccccc3)coc2c1	–	5.01 µM [rising, partial curve, poor fit]
COc1ccc(-c2cc3ccc(OCC(=O)NCC4CCC(C(=O)O)CC4)cc3oc2=O)cc1 (stereo not given)	0.891 µM [falling, partial curve, poor fit]	–
Cc1cnc(NC(=O)c2cccc(S(=O)(=O)N3CCOCC3)c2)s1	23.1 µM [falling, partial curve, poor fit]	–
CCOC(=O)c1c(C)[nH]c(C(=O)OCC(=O)NCc2ccc(F)cc2)c1C	14.6 µM [rising, partial curve, poor fit]	–
CN(C(=O)c1cccc(NC(=O)c2cccs2)c1)c1ccccc1	6.31 µM [falling, single point]	–
COc1ccc(-c2noc(-c3ccccc3Cl)n2)cc1OC	0.259 µM [rising, full curve, poor fit]	–
c1csc(-c2nc(-c3ccc(-c4ccon4)s3)no2)c1	17.8 µM [falling, single point]	–

Whole records, looked up by structure:
O=C1NC(=S)N/C1=C\c1ccc(N2CCOCC2)cc1 is listed as AC50 [1]: 25.1 µM [rising, partial curve, poor fit]
CCOC(=O)c1c(C)[nH]c(C(=O)OCC(=O)NCc2ccc(F)cc2)c1C is listed as AC50 [1]: 14.6 µM [rising, partial curve, poor fit]
COc1ccc(-c2cc3ccc(OCC(=O)NCC4CCC(C(=O)O)CC4)cc3oc2=O)cc1 (stereo not given) is listed as AC50 [1]: 0.891 µM [falling, partial curve, poor fit]
CN(C(=O)c1cccc(NC(=O)c2cccs2)c1)c1ccccc1 is listed as AC50 [1]: 6.31 µM [falling, single point]

The list continues:

SMILES	AC50 [1]	AC50 [2]
COc1ccc(-c2csc(NC(=O)c3cccs3)c2C(=O)O)cc1OC	0.708 µM [falling, partial curve, poor fit]	–
Cc1ccc(C(=O)Nc2ccc(C)c(S(=O)(=O)Nc3ccccc3Cl)c2)s1	20.6 µM [falling, single point]	–
c1cncc(CSc2nnc3ccc(-c4cccs4)nn23)c1	35.5 µM [falling, single point]	–
NS(=O)(=O)c1cc(C(=O)N=Nc2c(O)[nH]c3ccccc23)ccc1Cl	1.12 µM [falling, full curve]	–
Cc1ccccc1NC(=S)NC(=O)Cc1ccc(Cl)cc1	28.2 µM [falling, single point]	–
O=C(Nc1nc2ccccc2s1)c1cc2c(s1)-c1ccccc1OC2	6.51 µM [rising, partial curve, poor fit]	–
CC(C)CC(=O)NC(=S)Nc1ccc(N2CCCC2)c(Cl)c1	14.1 µM [rising, single point]	–
Nc1ccc(C(=O)O)cc1	2.59 µM [rising, full curve]	–
COc1cccc(-c2cnc(NCc3cc(Cl)ccc3O)n2C)c1	8.91 µM [falling, partial curve, poor fit]	–
Nc1cc(Cl)ccc1C(=O)OCC(=O)NCc1cccs1	14.6 µM [falling, single point]	–
CCOC(=O)c1cnn2c(C)cc(-c3ccccc3)nc12	29.1 µM [falling, single point]	–
Cc1ccc(O)c(NC2=C(Cl)C(=O)N(Cc3ccccc3)C2=O)c1	35.5 µM [falling, single point]	–
O=C(Nc1n[nH]c(=S)s1)c1ccc2ccccc2c1	0.891 µM [falling, full curve, poor fit]	–
COc1cccc(NC(=O)Cn2cnc3sc(C)c(S(=O)(=O)N4CCCCC4)c3c2=O)c1	2.06 µM [falling, full curve]	–
CCCCCC(=O)Nc1nc2ccccc2[nH]1	18.4 µM [falling, partial curve]	–
COc1ccc2c(c1)OC13CCCCC1C2C(C(=O)c1ccccc1)C(=O)N3 (stereo not given)	18.4 µM [rising, single point]	–
N#Cc1nc(-c2ccc(OCc3ccccc3)cc2)oc1NCc1cccnc1	1.41 µM [rising, full curve]	–
CCCCCOCC1CC(C/C(C)=N/NC(N)=S)C(=O)O1 (stereo not given)	29.1 µM [falling, single point]	–
Cc1c(C(=O)N2CCN(C(=O)c3ccccc3)CC2)oc2ccc(F)cc12	1.46 µM [rising, partial curve]	–
C/C(O)=c1/cnc2nc3ccccc3n2c1=O	14.1 µM [falling, single point]	–
